Source: paper PMC5386585
No constants are given. Whether binding was seen depends on the method and setting. Binding seen in cells or lysates may run through a third protein. Some entries that bind do so weakly or less than the wild type.

Protein sequences, listed by entry. Tags and fused reporters are not part of them. Lines headed by an entry give the natural chain unless they say otherwise; changes in a name come on top. Chains listed by the source or under a name are the forms on record and can include a tag or linker.
retinoic acid-related orphan receptor gamma t (RORγt), 3Flag-tagged (P51449, form named): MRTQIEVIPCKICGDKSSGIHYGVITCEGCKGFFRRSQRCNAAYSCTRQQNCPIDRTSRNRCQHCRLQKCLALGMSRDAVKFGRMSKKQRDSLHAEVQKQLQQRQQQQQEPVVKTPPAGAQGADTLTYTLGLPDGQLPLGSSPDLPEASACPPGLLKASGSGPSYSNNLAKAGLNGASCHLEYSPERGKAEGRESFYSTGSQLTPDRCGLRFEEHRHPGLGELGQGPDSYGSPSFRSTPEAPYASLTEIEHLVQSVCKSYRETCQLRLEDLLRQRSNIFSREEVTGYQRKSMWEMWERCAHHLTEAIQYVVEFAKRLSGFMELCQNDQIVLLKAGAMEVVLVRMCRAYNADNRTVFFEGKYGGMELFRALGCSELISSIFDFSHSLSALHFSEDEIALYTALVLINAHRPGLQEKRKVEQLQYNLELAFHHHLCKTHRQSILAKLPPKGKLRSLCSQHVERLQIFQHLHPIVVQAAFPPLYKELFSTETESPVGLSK
UniProt O75626: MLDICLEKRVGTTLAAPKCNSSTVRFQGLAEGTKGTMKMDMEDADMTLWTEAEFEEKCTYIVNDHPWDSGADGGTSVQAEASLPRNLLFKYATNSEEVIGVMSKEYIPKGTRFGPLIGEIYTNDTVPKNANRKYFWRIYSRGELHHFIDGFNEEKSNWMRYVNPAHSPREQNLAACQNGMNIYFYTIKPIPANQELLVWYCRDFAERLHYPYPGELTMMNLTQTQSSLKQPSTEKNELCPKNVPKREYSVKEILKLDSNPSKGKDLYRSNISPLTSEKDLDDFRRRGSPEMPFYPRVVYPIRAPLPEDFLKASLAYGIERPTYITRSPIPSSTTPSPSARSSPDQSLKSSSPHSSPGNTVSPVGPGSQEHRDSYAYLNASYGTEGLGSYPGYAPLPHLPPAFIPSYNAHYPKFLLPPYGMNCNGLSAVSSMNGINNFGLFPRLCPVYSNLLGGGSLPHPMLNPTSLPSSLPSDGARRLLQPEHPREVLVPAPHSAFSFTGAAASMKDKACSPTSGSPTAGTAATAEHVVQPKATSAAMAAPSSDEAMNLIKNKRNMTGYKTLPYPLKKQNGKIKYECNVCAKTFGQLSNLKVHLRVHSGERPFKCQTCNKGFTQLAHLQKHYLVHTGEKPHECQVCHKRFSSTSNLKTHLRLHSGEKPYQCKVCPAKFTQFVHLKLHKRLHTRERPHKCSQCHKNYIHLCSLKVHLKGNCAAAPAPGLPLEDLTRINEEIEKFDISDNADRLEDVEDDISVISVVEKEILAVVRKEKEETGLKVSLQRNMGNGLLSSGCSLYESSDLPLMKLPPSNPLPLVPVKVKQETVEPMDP
UniProt O75444: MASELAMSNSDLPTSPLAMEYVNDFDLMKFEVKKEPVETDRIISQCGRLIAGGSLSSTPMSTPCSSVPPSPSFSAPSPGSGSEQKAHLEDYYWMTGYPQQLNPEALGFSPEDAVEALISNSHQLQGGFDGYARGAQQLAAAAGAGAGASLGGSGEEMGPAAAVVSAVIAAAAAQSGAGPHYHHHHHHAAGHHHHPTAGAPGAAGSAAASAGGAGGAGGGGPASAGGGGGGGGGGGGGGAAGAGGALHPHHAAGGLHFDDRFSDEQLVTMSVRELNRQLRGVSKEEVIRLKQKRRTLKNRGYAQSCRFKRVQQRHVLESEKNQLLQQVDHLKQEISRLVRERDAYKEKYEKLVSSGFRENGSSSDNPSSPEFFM

Legend:
[1] = biological target: retinoic acid-related orphan receptor gamma t (RORγt), 3Flag-tagged (UniProt P51449); test: co-IP; HEK-293T cells (2 x 10^6 cells/well) transfected with RORγ-Flag (5 μg) and or Blimp-1-Myc (5 μg) plasmids; immunoprecipitation and immunoblotting for c-Maf, Blimp-1 and RORγ; which protein was precipitated is not told
[2] = biological target: B lymphocyte-induced maturation protein-1 (Blimp-1), Myc-tagged (UniProt O75626); test: as above

Row | binding [1] | binding [2] | Substance
1 | binds |  | B lymphocyte-induced maturation protein-1 (Blimp-1), Myc-tagged (from UniProt O75626 1-825)
2 | binds | binds | c-musculoaponeurotic fibrosarcoma (c-Maf) (from UniProt O75444 1-373)
